The list shows a part of the results. The calls rarely recur for the same compound in another form.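 Kinases were expressed as nanoluciferase fusions in K562 cells and luminescence was read every 4 h between 2 and 18 h as percent of control, DMSO set to 100% and a positive control to 0%. A time point counts as decreased when the signal drops significantly (2 sigma). The hit call is the authors' own, does not follow from the count of time points alone, and its rule is not shown.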
Assays:
Conditions in all cases: K562; 2-18 h
[1] = target: RET (UniProt P07949); assay: kinase-Nluc reporter destabilization hit call (1 = scored as downregulated) (binary); higher = compound decreases kinase abundance
[2] = target: RET_M918T (clone: RET_mut) (UniProt P07949); assay: as above
[3] = target: RIOK1 (UniProt Q9BRS2); assay: as above
[4] = target: RIPK1 (UniProt Q13546); assay: as above
[5] = target: RIPK2 (UniProt O43353); assay: as above
[6] = target: ROR2 (UniProt Q01974); assay: as above
[7] = target: RPS6KA1 (UniProt Q15418); assay: as above
[8] = target: SPHK1 (UniProt Q9NYA1); assay: as above
[9] = target: SRC (UniProt P12931); assay: as above
[10] = target: STK24 (UniProt Q9Y6E0); assay: as above
[11] = target: STK38 (UniProt Q15208); assay: as above
[12] = target: SYK (UniProt P43405); assay: as above
[13] = target: TEC (UniProt P42680); assay: as above
[14] = target: TYK2 (UniProt P29597); assay: as above
[15] = target: ULK3 (UniProt Q6PHR2); assay: as above
[16] = target: YES1 (UniProt P07947); assay: as above
[17] = target: ZAK (UniProt Q9NYL2); assay: as above
[18] = target: ZAP70 (UniProt P43403); assay: as above
[19] = target: ABL1 (UniProt P00519); assay: number of time points (of 5) at which kinase-Nluc abundance scored as decreased, DMSO-normalised (count); higher = more persistent destabilization
[20] = target: AKT1 (UniProt P31749); assay: as above

Protein sequences, listed by entry. Tags and fused reporters are not part of them. Lines headed by an entry give the natural chain unless they say otherwise; changes in a name come on top.
UniProt P07949, whole entry, looked up: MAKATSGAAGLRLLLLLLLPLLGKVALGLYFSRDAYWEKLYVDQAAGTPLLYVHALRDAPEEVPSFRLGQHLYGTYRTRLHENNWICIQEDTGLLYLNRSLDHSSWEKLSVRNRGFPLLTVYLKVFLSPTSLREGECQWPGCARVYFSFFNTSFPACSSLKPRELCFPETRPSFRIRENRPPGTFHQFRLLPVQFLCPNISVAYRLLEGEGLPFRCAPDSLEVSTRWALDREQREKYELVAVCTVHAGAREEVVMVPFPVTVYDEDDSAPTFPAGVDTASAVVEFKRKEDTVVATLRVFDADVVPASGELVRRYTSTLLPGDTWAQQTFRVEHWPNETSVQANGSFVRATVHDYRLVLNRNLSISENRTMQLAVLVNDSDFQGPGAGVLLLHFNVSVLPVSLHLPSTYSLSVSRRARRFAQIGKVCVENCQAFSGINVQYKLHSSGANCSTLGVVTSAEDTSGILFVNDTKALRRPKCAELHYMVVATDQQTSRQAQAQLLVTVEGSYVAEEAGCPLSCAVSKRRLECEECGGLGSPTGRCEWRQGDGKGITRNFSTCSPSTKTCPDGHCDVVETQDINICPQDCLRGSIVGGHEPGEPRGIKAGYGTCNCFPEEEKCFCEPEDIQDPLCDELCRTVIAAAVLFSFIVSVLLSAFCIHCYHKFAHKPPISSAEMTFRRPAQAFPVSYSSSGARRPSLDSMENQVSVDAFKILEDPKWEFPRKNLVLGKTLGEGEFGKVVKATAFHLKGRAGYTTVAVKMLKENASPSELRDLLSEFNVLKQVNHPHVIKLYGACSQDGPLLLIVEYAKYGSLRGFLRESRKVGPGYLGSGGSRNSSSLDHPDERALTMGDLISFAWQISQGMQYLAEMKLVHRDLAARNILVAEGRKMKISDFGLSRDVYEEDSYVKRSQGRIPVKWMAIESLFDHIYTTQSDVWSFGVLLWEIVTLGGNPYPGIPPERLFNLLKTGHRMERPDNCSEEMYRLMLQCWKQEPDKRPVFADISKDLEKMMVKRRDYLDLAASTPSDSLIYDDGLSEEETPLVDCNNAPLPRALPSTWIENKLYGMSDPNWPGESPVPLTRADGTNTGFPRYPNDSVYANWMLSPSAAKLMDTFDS
UniProt P07949, whole entry M918T, looked up: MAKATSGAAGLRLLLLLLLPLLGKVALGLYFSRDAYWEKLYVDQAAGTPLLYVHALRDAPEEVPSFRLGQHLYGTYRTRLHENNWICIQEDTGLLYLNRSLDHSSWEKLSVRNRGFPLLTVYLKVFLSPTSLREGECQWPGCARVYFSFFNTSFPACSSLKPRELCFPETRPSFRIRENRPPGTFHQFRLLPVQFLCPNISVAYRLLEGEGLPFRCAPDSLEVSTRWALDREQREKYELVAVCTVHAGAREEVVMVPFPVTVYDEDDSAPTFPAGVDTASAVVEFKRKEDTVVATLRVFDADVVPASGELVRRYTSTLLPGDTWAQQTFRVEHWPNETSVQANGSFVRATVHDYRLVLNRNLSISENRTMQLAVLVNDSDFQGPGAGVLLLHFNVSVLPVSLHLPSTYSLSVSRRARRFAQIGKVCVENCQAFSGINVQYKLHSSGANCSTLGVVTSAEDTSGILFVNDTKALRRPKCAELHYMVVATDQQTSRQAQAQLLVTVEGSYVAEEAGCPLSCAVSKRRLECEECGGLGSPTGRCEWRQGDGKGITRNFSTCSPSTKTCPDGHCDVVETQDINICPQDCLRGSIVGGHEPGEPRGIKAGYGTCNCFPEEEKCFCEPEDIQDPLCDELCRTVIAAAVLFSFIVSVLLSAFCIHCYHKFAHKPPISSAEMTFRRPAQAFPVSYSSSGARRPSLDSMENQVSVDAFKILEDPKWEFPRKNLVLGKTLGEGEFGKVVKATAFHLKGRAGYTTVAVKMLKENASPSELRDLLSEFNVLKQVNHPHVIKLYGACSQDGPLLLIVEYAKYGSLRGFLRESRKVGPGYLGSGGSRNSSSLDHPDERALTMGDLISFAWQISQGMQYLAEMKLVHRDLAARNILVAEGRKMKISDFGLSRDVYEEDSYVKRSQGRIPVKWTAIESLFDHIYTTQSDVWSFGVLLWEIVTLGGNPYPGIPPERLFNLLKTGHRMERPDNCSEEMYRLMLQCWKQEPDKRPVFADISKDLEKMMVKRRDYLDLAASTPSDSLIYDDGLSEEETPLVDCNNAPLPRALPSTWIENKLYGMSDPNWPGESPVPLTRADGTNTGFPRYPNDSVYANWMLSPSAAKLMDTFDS
UniProt Q01974, whole entry: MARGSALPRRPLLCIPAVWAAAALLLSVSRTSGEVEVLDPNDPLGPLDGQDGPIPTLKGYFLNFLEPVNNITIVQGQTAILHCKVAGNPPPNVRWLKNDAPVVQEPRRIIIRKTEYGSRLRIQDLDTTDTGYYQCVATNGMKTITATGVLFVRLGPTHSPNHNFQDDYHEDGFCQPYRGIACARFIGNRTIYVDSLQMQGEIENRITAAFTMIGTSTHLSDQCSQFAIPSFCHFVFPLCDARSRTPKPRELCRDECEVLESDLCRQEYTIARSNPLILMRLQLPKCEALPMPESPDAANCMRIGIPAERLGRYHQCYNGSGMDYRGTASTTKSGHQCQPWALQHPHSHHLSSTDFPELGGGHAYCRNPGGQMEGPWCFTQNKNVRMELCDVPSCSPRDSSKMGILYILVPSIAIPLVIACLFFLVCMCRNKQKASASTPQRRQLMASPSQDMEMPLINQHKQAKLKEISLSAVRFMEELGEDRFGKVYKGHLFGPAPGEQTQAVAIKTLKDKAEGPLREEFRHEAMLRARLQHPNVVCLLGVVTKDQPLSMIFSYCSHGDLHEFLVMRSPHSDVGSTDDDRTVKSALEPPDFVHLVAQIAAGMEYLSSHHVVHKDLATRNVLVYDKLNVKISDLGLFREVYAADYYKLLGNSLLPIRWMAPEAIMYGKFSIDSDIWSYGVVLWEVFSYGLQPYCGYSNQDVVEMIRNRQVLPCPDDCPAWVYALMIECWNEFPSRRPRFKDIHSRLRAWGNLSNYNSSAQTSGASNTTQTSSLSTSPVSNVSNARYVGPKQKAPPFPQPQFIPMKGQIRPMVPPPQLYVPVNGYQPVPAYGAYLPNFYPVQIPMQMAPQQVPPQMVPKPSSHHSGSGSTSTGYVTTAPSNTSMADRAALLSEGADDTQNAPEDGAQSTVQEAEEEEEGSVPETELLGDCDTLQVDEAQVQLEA
UniProt Q15418, whole entry: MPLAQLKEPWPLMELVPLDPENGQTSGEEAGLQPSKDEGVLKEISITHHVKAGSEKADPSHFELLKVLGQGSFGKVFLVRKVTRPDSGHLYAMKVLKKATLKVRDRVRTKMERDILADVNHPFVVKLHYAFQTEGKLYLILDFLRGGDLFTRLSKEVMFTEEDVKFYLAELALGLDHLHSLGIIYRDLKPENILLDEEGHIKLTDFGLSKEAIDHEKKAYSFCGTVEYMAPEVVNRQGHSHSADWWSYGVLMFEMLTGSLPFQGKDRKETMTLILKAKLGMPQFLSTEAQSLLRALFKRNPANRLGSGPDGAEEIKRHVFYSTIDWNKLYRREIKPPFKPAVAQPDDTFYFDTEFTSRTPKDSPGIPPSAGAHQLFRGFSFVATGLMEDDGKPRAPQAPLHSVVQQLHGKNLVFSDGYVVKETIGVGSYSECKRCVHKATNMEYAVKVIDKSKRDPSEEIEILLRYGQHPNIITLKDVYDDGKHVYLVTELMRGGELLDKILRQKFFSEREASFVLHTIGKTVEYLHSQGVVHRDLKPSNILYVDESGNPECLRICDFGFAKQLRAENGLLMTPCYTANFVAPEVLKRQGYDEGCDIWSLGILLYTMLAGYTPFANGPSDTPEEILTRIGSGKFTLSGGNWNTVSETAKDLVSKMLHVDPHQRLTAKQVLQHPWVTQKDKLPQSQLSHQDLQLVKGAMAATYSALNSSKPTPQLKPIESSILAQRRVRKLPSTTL
UniProt Q9NYA1, whole entry: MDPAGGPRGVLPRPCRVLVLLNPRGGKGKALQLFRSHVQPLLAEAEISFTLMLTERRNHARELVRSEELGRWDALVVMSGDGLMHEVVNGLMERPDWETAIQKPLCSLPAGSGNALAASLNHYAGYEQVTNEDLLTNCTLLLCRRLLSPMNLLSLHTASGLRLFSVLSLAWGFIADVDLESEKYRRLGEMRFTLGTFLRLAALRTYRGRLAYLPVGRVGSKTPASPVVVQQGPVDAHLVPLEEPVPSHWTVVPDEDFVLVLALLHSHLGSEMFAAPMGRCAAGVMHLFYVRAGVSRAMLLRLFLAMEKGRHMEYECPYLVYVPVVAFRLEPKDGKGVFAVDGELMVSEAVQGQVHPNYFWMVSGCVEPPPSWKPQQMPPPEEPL
UniProt P42680: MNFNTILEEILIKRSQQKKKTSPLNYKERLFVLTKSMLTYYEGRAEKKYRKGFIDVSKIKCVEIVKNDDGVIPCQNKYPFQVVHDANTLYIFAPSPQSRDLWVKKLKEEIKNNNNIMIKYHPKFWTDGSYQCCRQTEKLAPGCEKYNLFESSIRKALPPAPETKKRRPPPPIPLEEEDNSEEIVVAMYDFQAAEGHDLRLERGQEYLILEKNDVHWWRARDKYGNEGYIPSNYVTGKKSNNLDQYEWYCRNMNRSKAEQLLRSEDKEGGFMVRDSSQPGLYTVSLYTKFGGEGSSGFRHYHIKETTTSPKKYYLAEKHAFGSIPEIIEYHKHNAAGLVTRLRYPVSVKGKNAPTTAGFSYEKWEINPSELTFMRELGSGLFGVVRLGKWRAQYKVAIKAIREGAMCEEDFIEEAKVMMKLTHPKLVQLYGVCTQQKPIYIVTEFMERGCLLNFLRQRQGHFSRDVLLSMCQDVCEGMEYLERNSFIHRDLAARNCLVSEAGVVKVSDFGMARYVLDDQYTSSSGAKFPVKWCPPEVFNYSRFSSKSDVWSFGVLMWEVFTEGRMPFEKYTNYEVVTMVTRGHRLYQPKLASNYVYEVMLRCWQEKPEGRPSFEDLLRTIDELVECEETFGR
UniProt Q6PHR2: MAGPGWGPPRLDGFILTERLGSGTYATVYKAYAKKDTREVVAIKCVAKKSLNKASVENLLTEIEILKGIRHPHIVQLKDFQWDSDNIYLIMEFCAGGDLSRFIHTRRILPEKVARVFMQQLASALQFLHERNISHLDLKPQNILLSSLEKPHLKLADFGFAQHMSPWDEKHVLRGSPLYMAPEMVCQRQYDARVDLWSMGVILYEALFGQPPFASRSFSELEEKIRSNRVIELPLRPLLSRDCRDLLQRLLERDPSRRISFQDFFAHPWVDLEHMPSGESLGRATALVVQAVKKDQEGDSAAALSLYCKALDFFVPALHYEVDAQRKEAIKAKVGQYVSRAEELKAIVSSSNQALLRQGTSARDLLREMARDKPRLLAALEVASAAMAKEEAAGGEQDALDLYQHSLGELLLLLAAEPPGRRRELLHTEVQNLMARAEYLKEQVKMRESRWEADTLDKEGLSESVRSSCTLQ
UniProt P07947, whole entry, looked up: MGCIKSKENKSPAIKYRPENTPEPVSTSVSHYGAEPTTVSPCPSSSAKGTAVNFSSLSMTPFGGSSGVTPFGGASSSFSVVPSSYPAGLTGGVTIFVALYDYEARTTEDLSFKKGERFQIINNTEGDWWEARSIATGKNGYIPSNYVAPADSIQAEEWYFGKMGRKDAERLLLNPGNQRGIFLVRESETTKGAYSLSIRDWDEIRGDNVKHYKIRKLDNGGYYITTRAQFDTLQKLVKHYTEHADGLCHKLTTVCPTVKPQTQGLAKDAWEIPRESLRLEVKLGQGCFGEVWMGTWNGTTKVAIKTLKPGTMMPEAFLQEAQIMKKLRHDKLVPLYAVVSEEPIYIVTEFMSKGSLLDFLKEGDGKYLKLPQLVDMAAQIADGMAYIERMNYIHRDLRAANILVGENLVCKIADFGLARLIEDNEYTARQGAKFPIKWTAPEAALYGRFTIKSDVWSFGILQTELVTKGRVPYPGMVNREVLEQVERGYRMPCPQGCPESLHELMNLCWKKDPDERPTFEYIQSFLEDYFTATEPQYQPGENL
UniProt P43403: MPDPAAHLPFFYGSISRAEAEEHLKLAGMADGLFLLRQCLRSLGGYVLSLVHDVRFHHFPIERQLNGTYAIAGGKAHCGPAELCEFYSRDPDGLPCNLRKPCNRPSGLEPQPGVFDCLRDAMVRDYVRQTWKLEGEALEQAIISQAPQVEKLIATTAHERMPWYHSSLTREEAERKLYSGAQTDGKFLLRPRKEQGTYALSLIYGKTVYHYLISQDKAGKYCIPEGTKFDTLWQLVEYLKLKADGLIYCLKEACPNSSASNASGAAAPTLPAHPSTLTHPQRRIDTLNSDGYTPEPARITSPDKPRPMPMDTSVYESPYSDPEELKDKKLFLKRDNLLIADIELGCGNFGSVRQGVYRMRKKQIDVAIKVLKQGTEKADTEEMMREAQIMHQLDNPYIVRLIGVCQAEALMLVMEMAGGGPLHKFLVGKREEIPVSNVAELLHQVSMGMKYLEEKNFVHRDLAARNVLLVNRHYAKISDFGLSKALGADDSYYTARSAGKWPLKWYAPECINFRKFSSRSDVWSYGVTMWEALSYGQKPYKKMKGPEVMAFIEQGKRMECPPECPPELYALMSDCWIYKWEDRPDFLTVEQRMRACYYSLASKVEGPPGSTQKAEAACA

| Compound | kinase-Nluc reporter destabilization hit call [1] | kinase-Nluc reporter destabilization hit call [2] | kinase-Nluc reporter destabilization hit call [3] | kinase-Nluc reporter destabilization hit call [4] | kinase-Nluc reporter destabilization hit call [5] | kinase-Nluc reporter destabilization hit call [6] | kinase-Nluc reporter destabilization hit call [7] | kinase-Nluc reporter destabilization hit call [8] | kinase-Nluc reporter destabilization hit call [9] | kinase-Nluc reporter destabilization hit call [10] | kinase-Nluc reporter destabilization hit call [11] | kinase-Nluc reporter destabilization hit call [12] | kinase-Nluc reporter destabilization hit call [13] | kinase-Nluc reporter destabilization hit call [14] | kinase-Nluc reporter destabilization hit call [15] | kinase-Nluc reporter destabilization hit call [16] | kinase-Nluc reporter destabilization hit call [17] | kinase-Nluc reporter destabilization hit call [18] | number of time points [19] | number of time points [20] |
| --- | --- | --- | --- | --- | --- | --- | --- | --- | --- | --- | --- | --- | --- | --- | --- | --- | --- | --- | --- | --- |
| O=C(Nc1nc2ccccc2[nH]1)c1cccc(-n2cccc2)c1 (10 µM) | inactive: 0 | inactive: 0 | inactive: 0 | inactive: 0 | inactive: 0 | inactive: 0 | inactive: 0 | inactive: 0 | inactive: 0 | inactive: 0 | inactive: 0 | inactive: 0 | inactive: 0 | inactive: 0 | inactive: 0 | inactive: 0 | inactive: 0 | inactive: 0 | 0 | 0 |
| CC(C)c1cnc(-c2cc(Cl)ccc2F)cc1Nc1ccncc1C(=O)NC(CO)CO (2.5 µM) | inactive: 0 | inactive: 0 | inactive: 0 | inactive: 0 | inactive: 0 | inactive: 0 | inactive: 0 | inactive: 0 | inactive: 0 | inactive: 0 | inactive: 0 | inactive: 0 | inactive: 0 | inactive: 0 | inactive: 0 | inactive: 0 | inactive: 0 | inactive: 0 | 0 | 0 |
| NCCN1CCN(C/C=C/C(=O)N2CCC[C@@H](n3nc(-c4ccc(Oc5ccccc5)cc4)c4c(N)ncnc43)C2)CC1 [Ibrutinib-MPEA] (10 µM) | inactive: 0 | inactive: 0 | inactive: 0 | inactive: 0 | inactive: 0 | inactive: 0 | inactive: 0 | inactive: 0 | inactive: 0 | inactive: 0 | inactive: 0 | inactive: 0 | inactive: 0 | inactive: 0 | inactive: 0 | inactive: 0 | inactive: 0 | inactive: 0 | 0 | 0 |
| C[C@]1(O)CCC[C@@H]1n1c(=O)c(C(F)F)cc2cnc(NC3CCN(S(C)(=O)=O)CC3)nc21 (10 µM) | inactive: 0 | inactive: 0 | inactive: 0 | inactive: 0 | inactive: 0 | inactive: 0 | inactive: 0 | inactive: 0 | inactive: 0 | inactive: 0 | inactive: 0 | inactive: 0 | inactive: 0 | inactive: 0 | inactive: 0 | inactive: 0 | inactive: 0 | inactive: 0 | 0 | 0 |
| CN(CCNc1ccc2ncc(-c3ccc(C(N)=O)cc3)n2n1)C(=O)OC(C)(C)C (10 µM) | inactive: 0 | inactive: 0 | inactive: 0 | inactive: 0 | inactive: 0 | inactive: 0 | inactive: 0 | inactive: 0 | inactive: 0 | inactive: 0 | inactive: 0 | inactive: 0 | inactive: 0 | inactive: 0 | inactive: 0 | inactive: 0 | inactive: 0 | inactive: 0 | 0 | 0 |
| O=C(NCCO)c1ccc2c(c1)nc(Nc1cccc(Cl)c1)c1ccncc12 [CK2 inhibitor 2] (10 µM) | inactive: 0 | inactive: 0 | inactive: 0 | inactive: 0 | inactive: 0 | inactive: 0 | inactive: 0 | inactive: 0 | inactive: 0 | inactive: 0 | inactive: 0 | inactive: 0 | inactive: 0 | inactive: 0 | inactive: 0 | inactive: 0 | inactive: 0 | inactive: 0 | 0 | 0 |
| COc1ccc(C2CC(c3ccccc3)=NN2c2ccc(S(N)(=O)=O)cc2)cc1 (stereo not given) (10 µM) | inactive: 0 | inactive: 0 | inactive: 0 | inactive: 0 | inactive: 0 | inactive: 0 | inactive: 0 | inactive: 0 | inactive: 0 | inactive: 0 | inactive: 0 | inactive: 0 | inactive: 0 | inactive: 0 | inactive: 0 | inactive: 0 | inactive: 0 | inactive: 0 | 0 | 0 |
| Nc1cc(Nc2ccc(S(N)(=O)=O)cc2)ncn1 (10 µM) | inactive: 0 | inactive: 0 | inactive: 0 | inactive: 0 | inactive: 0 | inactive: 0 | inactive: 0 | inactive: 0 | inactive: 0 | inactive: 0 | inactive: 0 | inactive: 0 | inactive: 0 | inactive: 0 | inactive: 0 | inactive: 0 | inactive: 0 | inactive: 0 | 0 | 0 |
| Cc1ccc(Oc2nc3cc(-c4ccc5c(ccn5C)c4)c(Cl)cc3[nH]2)cc1C(=O)O (10 µM) | inactive: 0 | inactive: 0 | inactive: 0 | inactive: 0 | inactive: 0 | inactive: 0 | inactive: 0 | inactive: 0 | inactive: 0 | inactive: 0 | inactive: 0 | inactive: 0 | inactive: 0 | inactive: 0 | inactive: 0 | inactive: 0 | inactive: 0 | inactive: 0 | 0 | 0 |

Reference: the supplement of paper PMC12823440, “Inhibitors supercharge kinase turnover through native proteolytic circuits” (Nature, 2025)
